Percent effect of library compounds

Values are the deposited “Percent Effect”, in %.
The record does not define 0% and 100%; most values in the screen are far below 50% and negative numbers occur (in some assays of this library far below -100).
Compounds were drawn at random from those tested, without regard to their results.
Two or more numbers in one place are separate tests of the same structure; such repeats can differ widely.

Mtb cholesterol medium: 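Phenotypic screen: M. tuberculosis growth, cholesterol and DPPC medium, 4 days; the read-out is not stated. Concentration: 50 µM. The record gives no direction; compounds that gave an IC50 in retests scored well above the rest, so higher reads as more growth inhibition. Size under these conditions: about 69,000 compounds, about 370 of them at 50% or above in at least one test.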
Mtb glucose medium: 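Phenotypic screen: M. tuberculosis growth, glucose 7H9 medium, 3 days; the read-out is not stated. Compounds at 50 µM. Higher reads as more growth inhibition (inferred: compounds with an IC50 in retests scored well above the rest). Size under these conditions: about 69,000 compounds, about 760 of them at 50% or above in at least one test.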

compound,Mtb cholesterol medium,Mtb glucose medium
CSCCCN1CCc2nc(N(C)C)nc(N3CCC(O)CC3)c2C1,4.429,8.967 and 17.43
CCCC(=O)NCC(=O)Nc1cc(F)ccc1SCC(F)F,8.493,-0.2974
COc1cccc(OC)c1CN1CC(=O)N(c2ccc(C)cc2)CC1C (centres undefined),17.95,25.44
CN(C)CC(=O)N1CCC2(CC1)COc1ccccc1S(=O)(=O)N(C)C2,3.742,7.397
[H][C@]12CCC[C@@]1(COC)CN(C(=O)COC1CCCC1)C2,27.31,45.55
Cc1nn(C)c(C)c1CCC(=O)N1CCCOC(Cn2cccn2)C1 (centres undefined),8.643,-1.707
Fc1ccc(CCC2CCCN(Cc3c[nH]cn3)C2)c(F)c1 (centres undefined),12.28,34.69
Cn1c(NCC(O)c2ccc(F)cc2F)c(C#N)c(=O)n(C)c1=O (centres undefined),-23.55,-25.25
CCS(=O)(=O)CCN(C)Cc1cc(C)ccc1OC,-20.96,-9.477
Cc1nc(O)cc(C2CCCN(C(=O)CN(C)c3ccccc3)C2)n1 (centres undefined),-10.06,-11.23
CC(C(=O)N1CCOCC1)S(=O)(=O)Cc1noc(C(C)(C)C)n1 (centres undefined),-21.38,-7.368 and -39.48
Cc1nsc(NC(=O)N2CCc3sccc3C2)n1,15.93,26.33
CCc1ccc(CN2CCCC(CO)(CCOC)C2)cc1 (centres undefined),7.256,3.946
N[C@H]1CN(C(=O)c2ccc(CO)cc2)C[C@@H]1C1CC1,-9.279,-4.604 and 0.501
Cc1nn(C)c(Cl)c1C1CCCN1CCc1ccccn1 (centres undefined),-0.4588,-0.6864
CCOc1nnc(CN(CC)CC(=O)NC(C)(C)C)s1,-13.2 and 3.707,6.748
O=C(Nc1ncn(Cc2cccc(Br)c2)n1)C1CCC1,-22.52,-31.53
CCNC(=O)CCS(=O)(=O)Cc1ccn(-c2cccc(F)c2)n1,-8.237,-1.999 and 3.509
Cc1ccc(Nc2nccc(C3CCN(C(=O)CN)C3)n2)nc1.Cl (centres undefined),-17.56,-8.009
CN(C)CCOCC1CN(Cc2cccc(F)c2)Cc2nccn2C1.O=C(O)C(F)(F)F.O=C(O)C(F)(F)F (centres undefined),2.303,16.87
O=C(COCC1CCCO1)N1CCCN(Cc2ccccc2F)CC1 (centres undefined),20.25,31.47
Cn1cc(CN2C[C@@H](F)[C@@H](OCc3nc4cnccc4[nH]3)C2)cn1,10.68,-0.7214 and 33.57
[H][C@]12CCN(C(C)=O)C[C@@]1([H])OCCN(C(=O)c1ccco1)C2,-11.7,-4.597
Cc1ccc(CNC(=O)NC(C)CCS(C)(=O)=O)cc1F (centres undefined),3.207,10.89

Some entries from above, unchanged:

* Cc1nn(C)c(Cl)c1C1CCCN1CCc1ccccn1 (centres undefined) : Mtb cholesterol medium: -0.4588%; Mtb glucose medium: -0.6864%
* Fc1ccc(CCC2CCCN(Cc3c[nH]cn3)C2)c(F)c1 (centres undefined) : Mtb cholesterol medium: 12.28%; Mtb glucose medium: 34.69%

Measurements from “University of Dundee, Small-Polar-MMV Screening Library” (2021), ChEMBL document CHEMBL3988442.